Values from PubChem BioAssay AID1259405 (NCATS, 2018).
In all, the deposit lists about 50,000 reagents; this is an unselected part. Over the whole deposit, about 4,000 (8%) were called active. 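Mouse siRNA library applied to hamster cells; one well for each siRNA.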 The numbers tell different reagents against one gene apart. Not all columns of the deposit are shown. No sequences are given here.

Assay: 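Silenced genes that increase secreted GFP made by CHO cells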 (primary screen)
Cell system: Chinese hamster CHO-K1 ovary cells with stable secreted eGFP expression
Knock-down reagent: single siRNA against mouse genes, 0.8 pmol siRNA per well (2 µl of 400 nM stock)
Time to read-out: 3 days
Measured: 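Per-well intracellular GFP measured by laser scanning cytometry, plus viability from ATP luminescence, each relative to plate median of non-targeting control wells, in %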
Scale: GFP, % of control: higher = more GFP per well, higher productivity
Hit rule: 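Called active when intracellular GFP, relative to negative control, is at or above 120%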

GFP, % of control, by target gene and reagent
Trim30a (tripartite motif-containing 30A): #1 119 inactive; #2 67.8 inactive; #3 48.3 inactive
Tbx5 (T-box 5): #1 58.5 inactive; #2 78.7 inactive; #3 82 inactive
Tbc1d2 (TBC1 domain family, member 2): #1 128 active; #2 108 inactive; #3 75.8 inactive
Rep15 (RAB15 effector protein): #1 78.1 inactive; #2 96.2 inactive; #3 86.5 inactive
Zfp346 (zinc finger protein 346): #1 47.1 inactive; #2 96.4 inactive; #3 53.3 inactive
Tmem158 (transmembrane protein 158): #1 119 inactive; #2 40.1 inactive; #3 77.1 inactive
Prss21 (serine protease 21): #1 84.3 inactive; #2 77.1 inactive; #3 99.7 inactive
Sema6b: #1 108 inactive; #2 57.3 inactive; #3 78.9 inactive

Single entries from the entries so far:
For “GFP, % of control”, Trim30a (tripartite motif-containing 30A) #3 is entered as 48.3
For “GFP, % of control”, Zfp346 (zinc finger protein 346) #1 is entered as 47.1
Under “outcome”, Prss21 (serine protease 21) #3 has inactive
For “GFP, % of control”, Tbc1d2 (TBC1 domain family, member 2) #2 shows 108
Prss21 (serine protease 21) #1, outcome: inactive
Value of Tbc1d2 (TBC1 domain family, member 2) #1 under “outcome”: active

The listing continues:
GFP, % of control, by target gene and reagent
Nudcd2 (NudC domain containing 2): #1 51.1 inactive; #2 77.9 inactive; #3 61 inactive
Ctps1 (cytidine 5'-triphosphate synthase 1): #1 150 active; #2 42 inactive; #3 60.4 inactive
Ldb1 (LIM domain binding 1): #1 130 active; #2 66.5 inactive; #3 108 inactive
Klk1b16 (kallikrein 1-related peptidase b16): #1 95.4 inactive; #2 34.7 inactive; #3 87 inactive
Barx1 (BarH-like homeobox 1): #1 119 inactive; #2 29.8 inactive; #3 56.5 inactive
Ckmt1 (creatine kinase, mitochondrial 1, ubiquitous): #1 78.4 inactive
Sertad4 (SERTA domain containing 4): #1 38 inactive; #2 49.1 inactive; #3 48.2 inactive
Mkks (McKusick-Kaufman syndrome): #1 65.1 inactive; #2 110 inactive; #3 137 active
Dnajc16 (DnaJ heat shock protein family (Hsp40) member C16): #1 43.7 inactive; #2 75.3 inactive; #3 86.5 inactive
Or5p78 (olfactory receptor family 5 subfamily P member 78): #1 331 active; #2 80.3 inactive; #3 55.2 inactive
Wdr5 (WD repeat domain 5): #1 59.4 inactive; #2 128 active; #3 56.3 inactive
Lpcat4 (lysophosphatidylcholine acyltransferase 4): #1 78.4 inactive; #2 101 inactive
